Several values for one entry are separate records, joined by “and”; a condition that tells them apart may be missing. Identical values can stand only once.
Assay: In vivo microdialysis in the dorsolateral striatum with LC-MS
Details: rat, measured simultaneously for comparison
Protocol: Adult male Sprague–Dawley rats (Harlan, Indianapolis, IN, USA) weighing between 250 and 350 g were used for all experiments (n = 6). Rats were housed in a temperature and humidity-controlled room with 12 h light/dark cycles with food and water available ad libitum. All animals were treated as approved by the University of Michigan Unit for Laboratory Animal Medicine (Protocol: 08516; approval date: 4 April 2011) and in accordance with the National Institute of Health (NIH) Guidelines for the Care and Use of Laboratory Animals. The number of animals used, and their suffering were minimized.
We performed in vivo microdialysis in the rat DLS and applied LC-MS analytical techniques to quantify brain concentrations of the deltorphin analogue BBI-11008, following systemic treatment, and of endogenous leu-enkephalin levels both before and after treatment. These experiments were performed in awake, freely moving rats, implanted with microdialysis probes in the DLS 24 h prior to the experiments. The animals were fully recovered, their wounds healed, and the probes were fixed in place with dental cement. […]

**Q.** With leu-enkephalin as the substance, how does the “endogenous leu-enkephalin concentration in dorsolateral striatum dialysate” value read?
**A.** Its value is > 20 pM and < 20 pM.

Reference: article PMC7792611 (International Journal of Molecular Sciences, 2020)
